Measurements reported in US20040242697A1, “Methods of reducing pests by use of iodoacetic acid, bromoacetic acid, 2-iodoacetamide, or 2-bromoacetamide” (priority 2003, published 2004).
Some of these results come from one statement about several compounds together.

Tests used:
[1] = test system: Fusarium oxysporum f. sp. lycopersici (isolate FP-7); test: Fusarium petri plate (PDA) assay, radial growth; assay type: cell-based; conditions: compound in potato dextrose agar, radial growth measured 7-10 days
Description: The suspension was then standardized using a Beckman spectrophotometer (430 nm), which has been calibrated using a CDB blank. […] Suspensions were incubated for 24 hr at 28° C. A 10% stock solution of MTT was then added to each aliquot. The suspensions were allowed to incubate for 4 hr, then pelleted, drained, rinsed, and treated with 95% ethanol. The color change, which correlates with spore viability, was assessed using the Beckman spectrophotometer (570 nm), calibrated with 95% ethanol. Benlate (benomyl) was used as an industry standard control. Each treatment was replicated six times and the assay for each compound was repeated. […] A mycelial plug of (cork bore size #3) Fusarium oxysporum f. sp. lycopersici (isolate FP-7) from a 7-day old culture was placed at the center of the plate and the radial growth of the fungus was measured for 7-10 days. Each treatment was replicated six times and the assay for each compound was repeated. Regression analysis was performed using Sigma Plot 2000.
The tetrazolium assay is based on a color change produced with a vital stain on living tissue, i.e. the lower the absorbance, the fewer viable cells.

[2] = test system: purple nutsedge (Cyperus rotundus) tubers; test: Nutsedge greenhouse assay, soil drench on tubers in pots; assay type: in vivo; conditions: 100 ml soil drench, tarped 7 days, shoots counted 60 days
Description: Herbicide Screen: Each candidate compound was tested on seeds of smooth pigweed (Amaranthus hybridus) and barnyard grass (Echinocloa crus-galli), and on tubers of purple nutsedge (Cyperus rotundus) by exposing seeds or tubers to a specific concentration of the test compound. Seeds were surface sterilized and 20 seeds placed on sterile filter paper (Whatman #5) in a 10-cm petri plate for each of six replicates for each weed species tested. Twenty ml of compound of concentrations ranging from 0 ppm (sterile water control) to 2000 ppm was added to the petri dishes. Plates were stored at 30° C. in an dark incubator. Seed germination was monitored at 24 hr intervals for 30 days. Petri plate bioassays were repeated twice for each compound. Field collected purple nutsedge tubers were placed in 500 g of field soil with soil moisture adjusted to 5%. Five nutsedge tubers were planted in each 10-cm pot at a depth of 2.5 cm. Six replicate pots of each concentration, ranging from 0 ppm (water control) to 2000 ppm, will be treated using 100 ml as a soil drench. Pots were tarped with co-extruded black-on-white polyethylene mulch for 7 days. After tarps were removed, the number of emerged nutsedge shoots was recorded on a weekly basis for 60 days.

O=C(O)CBr [bromoacetic acid]
concentration at which fungal growth was eliminated [1]: ≥ 100 ppm | concentration eliminating germination of nutsedge [2]: ≥ 500 ppm

NC(=O)CI [iodoacetamide, 2-iodoacetamide]
concentration at which fungal growth was eliminated [1]: ≥ 100 ppm | concentration eliminating germination of nutsedge [2]: ≥ 500 ppm
